Experimental data: PMC11972371
No constants are given. Whether binding was seen depends on the method and setting. In cells and extracts the contact can be indirect.

Biological target: T1, RPN1 (mouse (endogenous in mouse brain)) (UniProt Q91YQ5)
T1 sequence: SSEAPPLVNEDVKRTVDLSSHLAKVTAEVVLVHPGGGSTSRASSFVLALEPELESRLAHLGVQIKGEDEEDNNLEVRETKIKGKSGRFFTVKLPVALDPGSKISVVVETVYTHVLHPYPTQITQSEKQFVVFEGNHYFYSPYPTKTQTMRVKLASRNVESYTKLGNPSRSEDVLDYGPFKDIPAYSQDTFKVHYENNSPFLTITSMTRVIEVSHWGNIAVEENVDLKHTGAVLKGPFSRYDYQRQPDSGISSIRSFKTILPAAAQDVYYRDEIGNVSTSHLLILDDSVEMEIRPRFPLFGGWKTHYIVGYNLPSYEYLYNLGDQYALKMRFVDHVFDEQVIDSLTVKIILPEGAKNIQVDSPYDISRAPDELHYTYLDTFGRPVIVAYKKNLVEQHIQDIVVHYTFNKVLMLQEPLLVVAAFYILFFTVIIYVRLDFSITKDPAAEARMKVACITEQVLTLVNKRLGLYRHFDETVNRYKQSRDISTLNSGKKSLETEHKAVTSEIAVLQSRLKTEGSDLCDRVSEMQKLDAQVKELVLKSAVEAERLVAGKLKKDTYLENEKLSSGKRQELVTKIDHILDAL
Experiment: co-IP; endogenous proteins from normal brain tissue of WT mice; immunoprecipitation assay kit (Proteintech), primary antibody overnight at 4 °C, agarose beads, detection by western blotting

binding: no binding
B1: CDK5RAP3 (protein, UniProt Q99LM2 1-503)
chain: MQDHQHVPIDIQTSKLLDWLVDRRHCNLKWQSLVLTIREKINTAIQDMPESQEIAQLLSGSYIHYFHCLRIVDLLKGTEASTKNIFGRYSSQRMKDWQEIVSLYEKDNTYLVELCSLLVRNVSYEIPSLKKQIAKCQQLQQEYSRKEEEGQAGAAEMREQFYHSCKQYGITGDNVRRELLALVKDLPSQLAEIGAGAQSLGEAIDLYQACVEFVCDSPTEQVLPMLRYVQKKGNSTVYEWRTGTEPSVVERPQLEEPPEQVQEDEIDWGDFGVEAVSDSGIVAETPGIDWGISLESEAKDAGADKIDWGDDAAAASEITVLETGTEAPEGVARGSDALTLLEYPETRNQFIDELMELEIFLSQRAVEMSEEADILSVSQFQLAPAILQGQTKEKMLSLVSTLQQLIGRLTSLRMQHLFMILASPRYVDRVTEFLQQKLKQSQLLALKKELMVEKQQEALQEQAALEPKLDLLLEKTRELQKLIEADISKRYSGRPVNLMGTSL
